Test results taken from article PMC10775985.
Results are given in words; binding and its absence hold for the method and conditions named.

Sequences of proteins named here, by UniProt entry; tags and fusion partners are left off.
UniProt P05434: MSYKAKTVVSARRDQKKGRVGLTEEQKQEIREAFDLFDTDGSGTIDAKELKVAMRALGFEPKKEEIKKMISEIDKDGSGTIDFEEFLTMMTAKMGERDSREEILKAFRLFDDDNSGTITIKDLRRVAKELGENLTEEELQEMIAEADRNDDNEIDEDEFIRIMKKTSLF

Target: CrCen-6His (Chlamydomonas reinhardtii centrin) (Chlamydomonas reinhardtii) (UniProt P05434)
Assay: light microscopy of droplets in purified protein solutions; self-assembly into droplets; concentrated recombinant centrin (100-200 μM), 2 mM CaCl2 added, then 10 mM EDTA; 50 mM BisTris pH 7.1, 37°C; both purified

“CrCen-6His (Chlamydomonas reinhardtii centrin) (from UniProt P05434 1-169)” was tested, and the binding was “no binding (condition: with 10 mM EDTA)”.
